The values that follow come from US20250283871A1, “COMPOSITIONS AND METHODS FOR MODULATING THE INTERACTION BETWEEN SS18-SSX FUSION ONCOPROTEIN AND NUCLEOSOMES” (Dana-Farber Cancer Institute, Inc., priority 2020, published 2025).

The chains are these.
B1: SFXN2 (protein, UniProt Q96NB2 1-322, looked up)
Sideroflexin-2: MEADLSGFNIDAPRWDQRTFLGRVKHFLNITDPRTVFVSERELDWAKVMVEKSRMGVVPPGTQVEQLLYAKKLYDSAFHPDTGEKMNVIGRMSFQLPGGMIITGFMLQFYRTMPAVIFWQWVNQSFNALVNYTNRNAASPTSVRQMALSYFTATTTAVATAVGMNMLTKKAPPLVGRWVPFAAVAAANCVNIPMMRQQELIKGICVKDRNENEIGHSRRAAAIGITQVVISRITMSAPGMILLPVIMERLEKLHFMQKVKVLHAPLQVMLSGCFLIFMVPVACGLFPQKCELPVSYLEPKLQDTIKAKYGELEPYVYFNKGL
B2: FAF2 (protein, UniProt Q96CS3 2-445, looked up)
FAS-associated factor 2: AAPEERDLTQEQTEKLLQFQDLTGIESMDQCRHTLEQHNWNIEAAVQDRLNEQEGVPSVFNPPPSRPLQVNTADHRIYSYVVSRPQPRGLLGWGYYLIMLPFRFTYYTILDIFRFALRFIRPDPRSRVTDPVGDIVSFMHSFEEKYGRAHPVFYQGTYSQALNDAKRELRFLLVYLHGDDHQDSDEFCRNTLCAPEVISLINTRMLFWACSTNKPEGYRVSQALRENTYPFLAMIMLKDRRMTVVGRLEGLIQPDDLINQLTFIMDANQTYLVSERLEREERNQTQVLRQQQDEAYLASLRADQEKERKKREERERKRRKEEEVQQQKLAEERRRQNLQEEKERKLECLPPEPSPDDPESVKIIFKLPNDSRVERRFHFSQSLTVIHDFLFSLKESPEKFQIEANFPRRVLPCIPSEEWPNPPTLQEAGLSHTEVLFVQDLTDE
B3: HARS2 (protein, UniProt P49590 34-506, looked up)
Histidine--tRNA ligase, …: QSQVAEAVLTSQLKAHQEKPNFIIKTPKGTRDLSPQHMVVREKILDLVISCFKRHGAKGMDTPAFELKETLTEKYGEDSGLMYDLKDQGGELLSLRYDLTVPFARYLAMNKVKKMKRYHVGKVWRRESPTIVQGRYREFCQCDFDIAGQFDPMIPDAECLKIMCEILSGLQLGDFLIKVNDRRIVDGMFAVCGVPESKFRAICSSIDKLDKMAWKDVRHEMVVKKGLAPEVADRIGDYVQCHGGVSLVEQMFQDPRLSQNKQALEGLGDLKLLFEYLTLFGIADKISFDLSLARGLDYYTGVIYEAVLLQTPTQAGEEPLNVGSVAAGGRYDGLVGMFDPKGHKVPCVGLSIGVERIFYIVEQRMKTKGEKVRTTETQVFVATPQKNFLQERLKLIAELWDSGIKAEMLYKNNPKLLTQLHYCESTGIPLVVIIGEQELKEGVIKIRSVASREEVAIKRENFVAEIQKRLSES
B4: ACAD10 (protein, UniProt Q6JQN1 1-1059, looked up)
Acyl-CoA dehydrogenase family …: MCVRSCFQSPRLQWVWRTAFLKHTQRRHQGSHRWTHLGGSTYRAVIFDMGGVLIPSPGRVAAEWEVQNRIPSGTILKALMEGGENGPWMRFMRAEITAEGFLREFGRLCSEMLKTSVPVDSFFSLLTSERVAKQFPVMTEAITQIRAKGLQTAVLSNNFYLPNQKSFLPLDRKQFDVIVESCMEGICKPDPRIYKLCLEQLGLQPSESIFLDDLGTNLKEAARLGIHTIKVNDPETAVKELEALLGFTLRVGVPNTRPVKKTMEIPKDSLQKYLKDLLGIQTTGPLELLQFDHGQSNPTYYIRLANRDLVLRKKPPGTLLPSAHAIEREFRIMKALANAGVPVPNVLDLCEDSSVIGTPFYVMEYCPGLIYKDPSLPGLEPSHRRAIYTAMNTVLCKIHSVDLQAVGLEDYGKQGDYIPRQVRTWVKQYRASETSTIPAMERLIEWLPLHLPRQQRTTVVHGDFRLDNLVFHPEEPEVLAVLDWELSTLGDPLADVAYSCLAHYLPSSFPVLRGINDCDLTQLGIPAAEEYFRMYCLQMGLPPTENWNFYMAFSFFRVAAILQGVYKRSLTGQASSTYAEQTGKLTEFVSNLAWDFAVKEGFRVFKEMPFTNPLTRSYHTWARPQSQWCPTGSRSYSSVPEASPAHTSRGGLVISPESLSPPVRELYHRLKHFMEQRVYPAEPELQSHQASAARWSPSPLIEDLKEKAKAEGLWNLFLPLEADPEKKYGAGLTNVEYAHLCELMGTSLYAPEVCNCSAPDTGNMELLVRYGTEAQKARWLIPLLEGKARSCFAMTEPQVASSDATNIEASIREEDSFYVINGHKWWITGILDPRCQLCVFMGKTDPHAPRHRQQSVLLVPMDTPGIKIIRPLTVYGLEDAPGGHGEVRFEHVRVPKENMVLGPGRGFEIAQGRLGPGRIHHCMRLIGFSERALALMKARVKSRLAFGKPLVEQGTVLADIAQSRVEIEQARLLVLRAAHLMDLAGNKAAALDIAMIKMVAPSMASRVIDRAIQAFGAAGLSSDYPLAQFFTWARALRFADGPDEVHRATVAKLELKHRI
B5: IDH3A (protein, UniProt P50213 28-366, looked up)
Isocitrate dehydrogenase …: TGGVQTVTLIPGDGIGPEISAAVMKIFDAAKAPIQWEERNVTAIQGPGGKWMIPSEAKESMDKNKMGLKGPLKTPIAAGHPSMNLLLRKTFDLYANVRPCVSIEGYKTPYTDVNIVTIRENTEGEYSGIEHVIVDGVVQSIKLITEGASKRIAEFAFEYARNNHRSNVTAVHKANIMRMSDGLFLQKCREVAESCKDIKFNEMYLDTVCLNMVQDPSQFDVLVMPNLYGDILSDLCAGLIGGLGVTPSGNIGANGVAIFESVHGTAPDIAGKDMANPTALLLSAVMMLRHMGLFDHAARIEAACFATIKDGKSLTKDLGGNAKCSDFTEEICRRVKDLD
B6: CPSF2 (protein, UniProt Q9P2I0 1-782, looked up)
Cleavage and polyadenylation …: MTSIIKLTTLSGVQEESALCYLLQVDEFRFLLDCGWDEHFSMDIIDSLRKHVHQIDAVLLSHPDPLHLGALPYAVGKLGLNCAIYATIPVYKMGQMFMYDLYQSRHNTEDFTLFTLDDVDAAFDKIQQLKFSQIVNLKGKGHGLSITPLPAGHMIGGTIWKIVKDGEEEIVYAVDFNHKREIHLNGCSLEMLSRPSLLITDSFNATYVQPRRKQRDEQLLTNVLETLRGDGNVLIAVDTAGRVLELAQLLDQIWRTKDAGLGVYSLALLNNVSYNVVEFSKSQVEWMSDKLMRCFEDKRNNPFQFRHLSLCHGLSDLARVPSPKVVLASQPDLECGFSRDLFIQWCQDPKNSIILTYRTTPGTLARFLIDNPSEKITEIELRKRVKLEGKELEEYLEKEKLKKEAAKKLEQSKEADIDSSDESDIEEDIDQPSAHKTKHDLMMKGEGSRKGSFFKQAKKSYPMFPAPEERIKWDEYGEIIKPEDFLVPELQATEEEKSKLESGLTNGDEPMDQDLSDVPTKCISTTESIEIKARVTYIDYEGRSDGDSIKKIINQMKPRQLIIVHGPPEASQDLAECCRAFGGKDIKVYMPKLHETVDATSETHIYQVRLKDSLVSSLQFCKAKDAELAWIDGVLDMRVSKVDTGVILEEGELKDDGEDSEMQVEAPSDSSVIAQQKAMKSLFGDDEKETGEESEIIPTLEPLPPHEVPGHQSVFMNEPRLSDFKQVLLREGIQAEFVGGVLVCNNQVAVRRTETGRIGLEGCLCQDFYRIRDLLYEQYAIV
B7: ATP2A1 (protein, UniProt O14983 1-1001, looked up)
Sarcoplasmic/endoplasmic …: MEAAHAKTTEECLAYFGVSETTGLTPDQVKRNLEKYGLNELPAEEGKTLWELVIEQFEDLLVRILLLAACISFVLAWFEEGEETITAFVEPFVILLILIANAIVGVWQERNAENAIEALKEYEPEMGKVYRADRKSVQRIKARDIVPGDIVEVAVGDKVPADIRILAIKSTTLRVDQSILTGESVSVIKHTEPVPDPRAVNQDKKNMLFSGTNIAAGKALGIVATTGVGTEIGKIRDQMAATEQDKTPLQQKLDEFGEQLSKVISLICVAVWLINIGHFNDPVHGGSWFRGAIYYFKIAVALAVAAIPEGLPAVITTCLALGTRRMAKKNAIVRSLPSVETLGCTSVICSDKTGTLTTNQMSVCKMFIIDKVDGDICLLNEFSITGSTYAPEGEVLKNDKPVRPGQYDGLVELATICALCNDSSLDFNEAKGVYEKVGEATETALTTLVEKMNVFNTDVRSLSKVERANACNSVIRQLMKKEFTLEFSRDRKSMSVYCSPAKSSRAAVGNKMFVKGAPEGVIDRCNYVRVGTTRVPLTGPVKEKIMAVIKEWGTGRDTLRCLALATRDTPPKREEMVLDDSARFLEYETDLTFVGVVGMLDPPRKEVTGSIQLCRDAGIRVIMITGDNKGTAIAICRRIGIFGENEEVADRAYTGREFDDLPLAEQREACRRACCFARVEPSHKSKIVEYLQSYDEITAMTGDGVNDAPALKKAEIGIAMGSGTAVAKTASEMVLADDNFSTIVAAVEEGRAIYNNMKQFIRYLISSNVGEVVCIFLTAALGLPEALIPVQLLWVNLVTDGLPATALGFNPPDLDIMDRPPRSPKEPLISGWLFFRYMAIGGYVGAATVGAAAWWFLYAEDGPHVNYSQLTHFMQCTEDNTHFEGIDCEVFEAPEPMTMALSVLVTIEMCNALNSLSENQSLLRMPPWVNIWLLGSICLSMSLHFLILYVDPLPMIFKLRALDLTQWLMVLKISLPVIGLDEILKFVARNYLEDPEDERRK

For one data set, the system named is BAF complex subunits and histone proteins. The data set can be described thus: Mass spectrometry proteomics of purified HA-SS18 WT and HA-SS18-SSX1 complexes (Tables 5A-5E). The conditions noted are these: HA-SS18SSX1 purification, NE (soluble nuclear extract) fraction, HEK-293T; peptides per identified protein. Also noted: species or system human.
On to B1, for which the “Total (total peptides)” value is on record as 6 and the “Unique (unique peptides)” value is given as 6.
Turning to B2, the “Total (total peptides)” value turned out to be 6 and the “Unique (unique peptides)” value was found to be 5.
B3: the “Total (total peptides)” value amounted to 6 and the “Unique (unique peptides)” value turned out to be 5.
Take B4: the “Total (total peptides)” value amounted to 6 and the “Unique (unique peptides)” value is 6.
Turning to B5, the “Total (total peptides)” value is 6 and the “Unique (unique peptides)” value came to 5.
With B6, the “Total (total peptides)” value is given as 6 and the “Unique (unique peptides)” value is 6.
Consider B7, for which the “Total (total peptides)” value was determined as 7 and the “Unique (unique peptides)” value came to 6.

Staying with this data set, now noted: HA-SS18WT_CHR_peptides: protein identified in HA-SS18 WT BAF complex purification from nuclease-treated solubilized chromatin (CHR), HEK-293T.
In the case of B7, the “Total (total peptides)” value is 2 and the “Unique (unique peptides)” value came out at 2.

Staying with this data set, now noted: HA-SS18WT_NE_peptides: HA-SS18 WT complexes purified from nuclear extract (NE), HEK-293T; label = protein identified (Gene Symbol).
Take B1: the “Total (peptides)” value is listed as 4 and the “Unique (peptides)” value turned out to be 4.
Regarding B2, the “Total (peptides)” value came to 5 and the “Unique (peptides)” value is recorded as 4.
B3: the “Total (peptides)” value was found to be 4 and the “Unique (peptides)” value turned out to be 4.
For B4, the “Total (peptides)” value stood at 5 and the “Unique (peptides)” value is 5.
As to B5, the “Total (peptides)” value is listed as 7 and the “Unique (peptides)” value was determined as 6.
The corresponding values for B6 are 7 and 7.
For B7 the same measures were 7 and 7.
